Where two headings read alike, the source gives them in different places.
What was measured:
[1] = system: Bacillus subtilis BmrA efflux mutants
[2] = system: Staphylococcus aureus efflux mutants and clinical strains

CCCCNc1ccc2nc3cc(NCCOC)c(N)cc3[n+](CCC)c2c1 [5a4]
cell pellet colour after 5a4 protocol ([1]; bmrA overexpressed strain): white | cell pellet colour after 5a4 protocol ([1]; ΔbmrA mutant): intense pink color | cell pellet colour after 5a4 protocol ([2]; S. aureus ATCC 25923 (basal norA efflux)): stained light pink | cell pellet colour after 5a4 protocol ([2]; SA‐1199 (basal norA efflux)): stained light pink | cell pellet colour after 5a4 protocol ([2]; SA‐1199B (norA overexpressing)): remained unstained | cell pellet colour after 5a4 protocol ([2]; SA‐K1748 (mepA overexpressing)): pale yellow (default color) | cell pellet colour after 5a4 protocol ([2]; SA‐K1758 (no functional NorA)): vivid pink stain | cell pellet colour after 5a4 protocol ([2]; SA‐K2068 (mepA overexpressing)): pale yellow (default color)

Source: PMC12023841, “Unlocking the Gates: A Novel Diagnostic Molecule for Quantifying Efflux Levels in Gram‐Positive Bacteria” (Advanced Healthcare Materials, 2025)
